A number of entries come with more than one value. The list is limited to them. There may be further records. Values that stand side by side do not match, cause unknown; dose, time, organism, isomer or construct need not be as stated for each record.
System: MDCK-II monolayers
Assay: In vitro MDCK-II permeability
Conditions: 2 µM, 150 min

For `CCCCNC(=O)CN1C(=O)SC(=Cc2ccccc2)C1=O`, the “Efflux Ratio (B > A/A > B)” value was “less than 2.0 and 1.4”.

Reference: PMC5663708, “Novel Benzylidene Thiazolidinedione Derivatives as Partial PPARγ Agonists and their Antidiabetic Effects on Type 2 Diabetes” (Scientific Reports, 2017)
